Test results from PubChem BioAssay AID588397 (National Center for Advancing Translational Sciences (NCATS), 2011).
Out of some 1,300 compounds screened, about 1,000 (77%) were called active. The set was probably picked from earlier hits. Inconclusive means that the source gave no clear call. Such entries were picked first, then a sample of the others. Calls follow the shape of the dose curve; as a rule, active = well fitted inhibition curve with a large enough effect; inconclusive = small, poorly fitted or top-dose-only effect; inactive = no such curve, though single readings can be large or run the other way. Where the call is inconclusive, the potency comes from a doubtful curve fit.

Assay: qHTS of small molecules that selectively kill Giardia lamblia: Hit Validation.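 Also: viability measured as ATP content by luminescence so killing lowers signal; nearly all actives have a fitted effect of over 65% in size.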
Conditions: Giardia lamblia trophozoite viability, dose-response; series mostly up to 38.3 µM
From the text: Giardia lamblia is a human pathogen afflicting impoverished nations, and the most common cause of outbreaks of diarrhea in the United States. Giardia has been classified by the CDC as a category B bioterrorism organism. The favored anti giardiasis drugs in the US are metronidazole or tinidazole, compounds that have undesirable side effects. Moreover, increasing resistance to drug regimes and recurrence are a concern. It is thus clear that alternative drug treatments are needed.
In a collaboration between the University of Maryland, College Park and the NIH Chemical Genomics Center, a bioluminescence Giardia viability assay based on the trophozoites' ATP content was developed. This assay is suitable for high throughput screening, and miniaturized the assay for compound screening in 1536-well plates. The goal of the project is to screen the Molecular Libraries Small Molecule Repository (MLSMR) for compounds that selectively kill Giardia trophozoites.
NIH Chemical Genomics Center [NCGC]
NIH Molecular Libraries Probe Centers Network [MLPCN]
Assay Submitter (PI): Osnat Herzberg, University of Maryland, College Park, MD.
1. Dispense 2 ul/well media
2. Dispense 23 nl/well compounds
3. Dispense 4 ul/well Giardia trophozoites at a concentration of 100 cells/well
4. Incubate 48 hrs at 37 deg C anaerobically
5. Dispense 4 ul/well ATPLite 1-Step Luminescence assay kit
6. Incubate 15-30 min at room temperature
7. Read luminescence signal on ViewLux plate reader
Potency is read from the fitted curve at half-maximal effect.

Structure (SMILES)	Potency
COc1ccc(C(=O)CC(SCC(NC(C)=O)C(=O)O)c2ccc(Cl)cc2)cc1OC (configuration not stated)	active: 13 µM
O=[N+]([O-])c1cccc(-n2nnnc2CNCc2ccccc2)c1	inconclusive: 36.5 µM [inhibitor, partial curve]
CCc1ccc([C@@H]2CC=C(C(=O)O)[C@H](c3cccc(Cl)c3)N2S(=O)(=O)c2ccc(C)cc2)cc1	inconclusive: 5.79 µM [inhibitor, partial curve]
CC1(C)N=c2ccc([N+](=O)[O-])c(N)c2=[N+]1[O-]	inconclusive: 29 µM [inhibitor, partial curve, poor fit]
Cc1ccc([C@@H]2CC=C(C(=O)O)[C@H](c3ccccc3)N2S(=O)(=O)c2ccc(C)cc2)cc1	inconclusive: 29 µM [inhibitor, partial curve, poor fit]
CC(=O)Nc1ccc(S(=O)(=O)NCCC(=O)N2CCN(c3ccccc3Cl)CC2)cc1	inactive
Cc1ccc([C@H]2C(C(=O)O)=CC[C@@H](c3cccc(Cl)c3)N2S(=O)(=O)c2ccc(C)cc2)cc1	inconclusive: 1.03 µM [inhibitor, full curve]
O=[N+]([O-])c1cn(-c2nc(-c3ccco3)cc(C(F)(F)F)n2)cn1	active: 2.59 µM
CCOC(=O)c1c(C)n(C)c2cc([N+](=O)[O-])c(O)c([N+](=O)[O-])c12	inconclusive: 5.79 µM [inhibitor, full curve, poor fit]
Cc1ccc(S(=O)(=O)N2[C@@H](c3ccc(Cl)cc3)C(C(=O)O)=CC[C@H]2c2cccc(Cl)c2)cc1	inconclusive: 1.3 µM [inhibitor, full curve]
COc1cccc(CSc2nc3ccncc3[nH]2)c1	active: 1.63 µM
O=C1NCCN1c1ncc([N+](=O)[O-])s1	active: 0.103 µM
Cc1ccc2c(c1)c1nc3ccccc3nc1n2C	inconclusive: 46 µM [inhibitor, partial curve, poor fit]
NC(=O)C1(Nc2ccc(-c3ccc(Cl)cc3)cc2)CCCC1	inconclusive: 7.29 µM [inhibitor, partial curve]
CN1C(=O)/C(=C/c2cccc(Cl)c2)Sc2ccc(C(=O)N3CCCC3)cc21	inconclusive: 46 µM [inhibitor, partial curve, poor fit]
CC(Nc1nc(N2CCN(CCO)CC2)nc2ccccc12)c1ccccc1 (configuration not stated)	active: 1.03 µM
CCN(c1ccccc1)S(=O)(=O)c1cccc(C(=O)OCc2nc3sc(C)c(C)c3c(=O)[nH]2)c1	inconclusive: 4.6 µM [inhibitor, partial curve]
CN(C)C(=O)COC(=O)c1cccc(S(=O)(=O)N2CC3(C)CC2CC(C)(C)C3)c1 (configuration not stated)	inconclusive: 0.0729 µM [inhibitor, full curve]
CCOC(=O)c1cnc(Nc2nc3ccccc3o2)nc1CSC(=S)N(CC)CC	inconclusive: 29 µM [inhibitor, partial curve, poor fit]
COc1ccc(-c2cc(=O)c3ccccc3o2)cc1	inconclusive: 23.1 µM [inhibitor, partial curve]
Cc1ccc([C@@H]2CC=C(C(=O)O)[C@H](c3cccc(Cl)c3)N2S(=O)(=O)c2ccc(C)cc2)cc1	inconclusive: 0.29 µM [inhibitor, full curve]
O=C(O)c1cccc(NC(=S)NC(NC(=O)c2ccccc2[N+](=O)[O-])C(Cl)(Cl)Cl)c1 (configuration not stated)	inactive
C=CCNC(=O)c1ccccc1NC(=O)COc1ccccc1	inconclusive: 46 µM [inhibitor, partial curve, poor fit]

Structure (SMILES)	Potency
COc1ccc(C(CNC(=O)c2oc3cc(Br)ccc3c2C)N2CCCCC2)cc1 (configuration not stated)	inconclusive: 29 µM [inhibitor, partial curve]
Cc1cc(-c2ccc(C)c(S(=O)(=O)N3CCN(c4ccc([N+](=O)[O-])cc4)CC3)c2)on1	inconclusive: 2.9 µM [inhibitor, full curve]
CN(C)c1nc(=NCc2cccs2)ss1	inconclusive: 2.05 µM [inhibitor, full curve, poor fit]
O=C(Nc1nnc(C23CC4CC(CC(C4)C2)C3)s1)c1ccco1	inconclusive: 18.3 µM [inhibitor, partial curve, poor fit]
COc1cc(C(=O)/C=C/c2cccnc2)c([N+](=O)[O-])cc1OC	active: 4.6 µM
CCCSc1nc2c(c(=O)n1CC)SC(C)C2 (configuration not stated)	inactive
O=C(NCc1ccccc1CN1CCCC1)c1cccc(S(=O)(=O)N2CCCC2)c1	inactive
Cc1ccc(S(=O)(=O)N2[C@@H](c3cccc(Cl)c3)C(C(=O)O)=CC[C@H]2c2cccc(C)c2)cc1	inconclusive: 0.23 µM [inhibitor, full curve, poor fit]
COc1cc(/C=C2\COC/C(=C\c3cc(OC)c(OC)c(OC)c3)C2=O)cc(OC)c1OC	active: 11.6 µM
CCc1cc(=O)oc2cc(C)cc(OCC(=O)NC3CCN(Cc4ccccc4)CC3)c12	inconclusive: 46 µM [inhibitor, partial curve, poor fit]
Cc1ccc(S(=O)(=O)N2CC(C(=O)O)=CC[C@H]2c2ccc(Cl)cc2)cc1	inconclusive: 0.65 µM [inhibitor, full curve]
Cc1ccc(S(=O)(=O)N2[C@@H](c3ccc(Cl)cc3)C(C(=O)O)=CC[C@H]2c2ccc(Cl)c(Cl)c2)cc1	inconclusive: 1.16 µM [inhibitor, full curve, poor fit]
O=C(CCN1C(=O)c2ccccc2C1=O)NCc1ccc(F)cc1	inactive
O=C(Nc1ccc(O)c2c(=O)cc(-c3ccccc3Cl)oc12)c1ccc(F)cc1	inactive
Cc1ccc(-c2ccc(/C=N/N3C(=O)C4C5C=CC(CC5)C4C3=O)o2)c([N+](=O)[O-])c1 (configuration not stated)	inactive
Cc1ccc([C@@H]2CC=C(C(=O)O)CN2S(=O)(=O)c2ccc(C)cc2)cc1	inconclusive: 0.918 µM [inhibitor, full curve]
CCCOc1cccc(-c2nnc(NC(=O)c3ccco3)s2)c1	inconclusive: 5.16 µM [inhibitor, full curve]
C[C@@H]1[C@H]2[C@@H](O[C@@H]3O[C@H](CO)[C@@H](O)[C@H](O)[C@H]3O)OC=C(C(=O)O)[C@H]2C[C@@H]1O	inactive
O=C(c1ccc2c3c(cccc13)CC2)C1CCCN(Cc2ccc(OCCO)cc2)C1 (configuration not stated)	inconclusive: 18.3 µM [inhibitor, partial curve]
O=C(Nc1nnc(-c2ccco2)o1)c1ccc([N+](=O)[O-])s1	active: 3.65 µM
CCc1nn2c(=O)c(S(=O)(=O)Nc3ccc(Cl)cc3)c(C)nc2s1	inactive
CC(C)(C)c1cc(C(=O)N/N=C/c2ccncc2)n[nH]1	inactive
Cc1ccc(S(=O)(=O)N2CCN(C(=O)COc3ccc(C)nc3[N+](=O)[O-])CC2)c(C)c1	active: 4.1 µM

Quoted from the listing.
Value of O=C(c1ccc2c3c(cccc13)CC2)C1CCCN(Cc2ccc(OCCO)cc2)C1 (configuration not stated) under Potency: inconclusive: 18.3 µM [inhibitor, partial curve]
Value of Cc1cc(-c2ccc(C)c(S(=O)(=O)N3CCN(c4ccc([N+](=O)[O-])cc4)CC3)c2)on1 under Potency: inconclusive: 2.9 µM [inhibitor, full curve]
Value of O=C(Nc1nnc(-c2ccco2)o1)c1ccc([N+](=O)[O-])s1 under Potency: active: 3.65 µM

Additional records.

Structure (SMILES)	Potency
CCCNC(=O)Cn1c(=O)n(C)c2ccccc21	inactive
OCCOCCNc1ncnc2c1c(-c1ccccc1)cn2-c1ccccc1	inconclusive: 11.6 µM [inhibitor, partial curve, poor fit]
COc1ccc(Cc2nnc(NC(=O)Nc3ccccc3F)s2)cc1OC	inactive
O=C(COc1ccccc1)N=C1SC2CS(=O)(=O)CC2N1c1ccccc1F (configuration not stated)	inactive
O=S(=O)(c1ccccc1)N1CCN(S(=O)(=O)c2ccccc2)CC1	inactive
O=[N+]([O-])c1ncn(Cc2c(Cl)cccc2Cl)n1	inconclusive: 0.579 µM [inhibitor, full curve, poor fit]
CC(=O)c1sc(NC(=O)c2ccc(C)c(C)c2)nc1C	inconclusive: 57.9 µM [inhibitor, partial curve, poor fit]
O=C(O)c1cccc(S(=O)(=O)N(Cc2ccccc2)c2ccccc2Cl)c1	inconclusive: 0.365 µM [inhibitor, full curve, poor fit]
Cc1nc2c(nc1C)C(=O)c1ccccc1C2=O	active: 3.26 µM
O=C(Nc1nnc(C2=COCCO2)o1)c1cccc(F)c1	inconclusive: 23.1 µM [inhibitor, partial curve, poor fit]
CCOC(=O)[C@H]1[C@H]2COc3ccc(Cl)cc3[C@@H]2N2C(=O)c3ccc(C)cc3NC(=O)[C@@]12C	inconclusive: 46 µM [inhibitor, partial curve]
CC(NC(=O)COc1cccnc1[N+](=O)[O-])c1ccc(Cl)cc1Cl (configuration not stated)	active: 3.26 µM
C(=C\c1cnc2ccccc2n1)/c1ccc2c(c1)OCO2	active: 2.31 µM
O=C(Oc1cccc2c(O)cccc12)c1ccccc1Cl	inactive
O=[N+]([O-])c1ccc(Nc2ccccc2)c2nonc12	inconclusive: 18.3 µM [inhibitor, partial curve, poor fit]
CCN(CCCNC(=O)c1nn(C)c2c1CS(=O)(=O)c1ccccc1-2)Cc1ccccc1	inconclusive: 57.9 µM [inhibitor, partial curve, poor fit]
COc1cc2c3c(c1OC)C1(C=CC(=NNC(N)=O)C=C1)CC3N(C(C)=O)CC2 (configuration not stated)	inactive
COc1cc2sc(-c3ccccc3OC)c(-c3ccc(O)cc3)c2cc1OC	inconclusive: 1.3 µM [inhibitor, full curve]
CC(=O)N(/N=C/c1ccc([N+](=O)[O-])o1)c1nc2ccccc2c(=O)n1-c1ccccc1	active: 1.03 µM
Brc1ccc(CNc2nc3ccccc3n2CCN2CCCCC2)cc1	active: 0.516 µM
Cc1ccc(N=c2c([N+](=O)[O-])nn(-c3ccc4c(c3)OCCO4)n2O)cc1F	inconclusive: 1.45 µM [inhibitor, full curve]
